Taken from: PubChem BioAssay AID1259308 (NCATS, 2017)

- Aim: 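Knock-downs that increase output of a recombinant reporter protein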 (primary screen)
- System: human HEK293 embryonic kidney cells stably expressing firefly luciferase (HEK-CMV-Luc2-Hygro)
- Reagents: single siRNA against human genes, 0.8 pmol siRNA per well
- Time to read-out: 72 h
- Read-out: 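Luciferase light (ONE-Glo) measured on one replicate plate set and viability (CellTiter-Glo) on the other, scaled to a negative control siRNA, with robust z-scores and luciferase per cell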
- Scale: total luciferase, z-score and total luciferase, % of control: higher = more reporter protein produced
- Active means: 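Active when the median/MAD z-score for overall luciferase is greater than 3; a gene was taken forward for validation with new siRNAs if at least two of its three siRNAs passed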
- Meaning of the calls: active = raised luciferase; inactive = no rise
Shown is an unselected part of about 59,000 deposited reagents. Of all reagents, about 1,510 (2.6%) were called active. 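Calls use total luciferase alone and ignore viability, so some active siRNAs may act by altering cell number.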 Reagents against one gene are numbered here. Further read-outs or replicates are left out here.

After knock-down of NSD3 (nuclear receptor binding SET domain protein 3) #1, the screen gave total luciferase, z-score -0.257; total luciferase, % of control 76.8; inactive.
Knock-down of NSD3 (nuclear receptor binding SET domain protein 3) #2 came out at: total luciferase, z-score 0.0214; total luciferase, % of control 82.3; inactive.
NSD3 (nuclear receptor binding SET domain protein 3) #3 scored total luciferase, z-score 0.736; total luciferase, % of control 96.5; inactive.
Depletion of PABIR3 (PABIR family member 3) #1 gave: total luciferase, z-score 0.318; total luciferase, % of control 88.2; inactive.
Silencing of PABIR3 (PABIR family member 3) #2 came out at: total luciferase, z-score -1.61; total luciferase, % of control 49.8; inactive.
Against PABIR3 (PABIR family member 3) #3, the entry reads total luciferase, z-score -0.21; total luciferase, % of control 77.7; inactive.
Silencing of ACSL6 (acyl-CoA synthetase long chain family member 6) #1 resulted in: total luciferase, z-score 1.42; total luciferase, % of control 110; inactive.
Silencing of ACSL6 (acyl-CoA synthetase long chain family member 6) #2 resulted in: total luciferase, z-score -0.702; total luciferase, % of control 67.9; inactive.
Against ACSL6 (acyl-CoA synthetase long chain family member 6) #3, the entry reads total luciferase, z-score 0.326; total luciferase, % of control 88.4; inactive.
Knock-down of METRNL (meteorin like, glial cell differentiation regulator) #1 came out at: total luciferase, z-score 0.54; total luciferase, % of control 92.6; inactive.
With knock-down of METRNL (meteorin like, glial cell differentiation regulator) #2, the screen gave total luciferase, z-score 1.84; total luciferase, % of control 119; inactive.
METRNL (meteorin like, glial cell differentiation regulator) #3 gave total luciferase, z-score 0.712; total luciferase, % of control 96; inactive.
With knock-down of MTMR7 (myotubularin related protein 7) #1, the record shows total luciferase, z-score 0.0989; total luciferase, % of control 83.9; inactive.
For MTMR7 (myotubularin related protein 7) #2, the entry reads total luciferase, z-score 0.115; total luciferase, % of control 84.2; inactive.
Silencing of MTMR7 (myotubularin related protein 7) #3 resulted in: total luciferase, z-score -0.435; total luciferase, % of control 73.2; inactive.
OGFR (opioid growth factor receptor) #1 gave total luciferase, z-score -2.63; total luciferase, % of control 29.6; inactive.
After knock-down of OGFR (opioid growth factor receptor) #2, the record shows total luciferase, z-score 0.0412; total luciferase, % of control 82.7; inactive.
OGFR (opioid growth factor receptor) #3 scored total luciferase, z-score -2.69; total luciferase, % of control 28.5; inactive.
Against ANTKMT (adenine nucleotide translocase lysine methyltransferase) #1 the deposit lists total luciferase, z-score 0.269; total luciferase, % of control 87.2; inactive.
With knock-down of ANTKMT (adenine nucleotide translocase lysine methyltransferase) #2 the results were total luciferase, z-score -1.71; total luciferase, % of control 47.8; inactive.
Depletion of ANTKMT (adenine nucleotide translocase lysine methyltransferase) #3 came out at: total luciferase, z-score 1.19; total luciferase, % of control 106; inactive.
Silencing of FKBP3 (FKBP prolyl isomerase 3) #1 gave: total luciferase, z-score -1.26; total luciferase, % of control 56.9; inactive.
After knock-down of FKBP3 (FKBP prolyl isomerase 3) #2, the record shows total luciferase, z-score -0.123; total luciferase, % of control 79.4; inactive.
Silencing of FKBP3 (FKBP prolyl isomerase 3) #3 resulted in: total luciferase, z-score 0.154; total luciferase, % of control 85; inactive.
NADK (NAD kinase) #1 scored total luciferase, z-score 0.0733; total luciferase, % of control 83.3; inactive.
Depletion of NADK (NAD kinase) #2 came out at: total luciferase, z-score -0.16; total luciferase, % of control 78.7; inactive.
Knock-down of NADK (NAD kinase) #3 resulted in: total luciferase, z-score -1.43; total luciferase, % of control 53.4; inactive.
After knock-down of CYP2A7 (cytochrome P450 family 2 subfamily A member 7) #1, the screen gave total luciferase, z-score -0.294; total luciferase, % of control 76; inactive.
With knock-down of CYP2A7 (cytochrome P450 family 2 subfamily A member 7) #2, the record shows total luciferase, z-score 0.467; total luciferase, % of control 91.2; inactive.
Knock-down of CYP2A7 (cytochrome P450 family 2 subfamily A member 7) #3 came out at: total luciferase, z-score -1.96; total luciferase, % of control 43; inactive.
BLTP1 (bridge-like lipid transfer protein family member 1) #1 gave total luciferase, z-score -0.319; total luciferase, % of control 75.5; inactive.
After knock-down of BLTP1 (bridge-like lipid transfer protein family member 1) #2 the results were total luciferase, z-score -1.11; total luciferase, % of control 59.7; inactive.
With knock-down of BLTP1 (bridge-like lipid transfer protein family member 1) #3, the screen gave total luciferase, z-score -1.47; total luciferase, % of control 52.6; inactive.
Knock-down of WBP11 (WW domain binding protein 11) #1 came out at: total luciferase, z-score 1.16; total luciferase, % of control 105; inactive.
For WBP11 (WW domain binding protein 11) #2, the values are total luciferase, z-score 4.73; total luciferase, % of control 176; active.
Depletion of WBP11 (WW domain binding protein 11) #3 resulted in: total luciferase, z-score 2.01; total luciferase, % of control 122; inactive.
For ZNF585B (zinc finger protein 585B) #1, the values are total luciferase, z-score -0.169; total luciferase, % of control 78.5; inactive.
After knock-down of ZNF585B (zinc finger protein 585B) #2 the results were total luciferase, z-score -0.971; total luciferase, % of control 62.6; inactive.
For ZNF585B (zinc finger protein 585B) #3, the entry reads total luciferase, z-score 1.34; total luciferase, % of control 108; inactive.
Depletion of PLCXD3 #1 came out at: total luciferase, z-score -0.0137; total luciferase, % of control 81.6; inactive.
PLCXD3 #2 showed total luciferase, z-score -0.652; total luciferase, % of control 68.9; inactive.
PLCXD3 #3 gave total luciferase, z-score 0.856; total luciferase, % of control 98.9; inactive.

In a second layout: 3 of the entries above
gene knocked down	reagent	total luciferase, z-score	total luciferase, % of control	outcome
ANTKMT (adenine nucleotide translocase lysine methyltransferase)	1	0.269	87.2	inactive
ANTKMT (adenine nucleotide translocase lysine methyltransferase)	2	-1.71	47.8	inactive
ANTKMT (adenine nucleotide translocase lysine methyltransferase)	3	1.19	106	inactive
